Measurements reported in PubChem BioAssay AID652243 (Drosophila RNAi Screening Center, 2013)
The deposit covers about 24,000 reagents; below is a random part of those that have a named target and a result. Of all reagents, 246 (1%) got an active call. 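Plates not normalised; calls are printed but the firefly/Renilla ratio behind them is not deposited; fold cut for lowering reported inconsistently.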 The raw values are shown without normalisation. Names joined by + are all predicted targets of the reagent. Reagent sequences are not shown. Not given: the amount of reagent.

- Aim: 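Fly genes required for human androgen receptor driven transcription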 (primary screen)
- System: Drosophila S2R+ cells
- Reagent: long dsRNA against Drosophila genes
- Duration: 72 h (48 h, then 24 h hormone)
- Treatment: synthetic androgen R1881 at 10 nM for 24 h
- Detection: 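Firefly light from an androgen-responsive reporter and Renilla control light per well, raw and unnormalised, for each of two replicates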
- Direction: firefly reporter light: higher = more light from androgen-responsive reporter; Renilla control light: higher = more constitutive control signal (cell number, transfection)
- Active means: 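Across duplicate plates, a knock-down whose log firefly/Renilla ratio shifted a set fold down or up from the GFP/LacZ control mean was a hit; the downward cut appears as both 1.5 and 3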
- Meaning of the calls: active = hit: reporter lowered or raised; inactive = no hit

The opening 5 entries, ahead of the listing:
| predicted target | dsRNA | firefly reporter light, replicate 1 | firefly reporter light, replicate 2 | Renilla control light, replicate 1 | Renilla control light, replicate 2 | Outcome |
| --- | --- | --- | --- | --- | --- | --- |
| CG10516 | DRSC09738 | 2.38e5 | 2.07e5 | 1.67e6 | 1.50e6 | inactive |
| CG8093 | DRSC07078 | 87990 | 95700 | 1.17e6 | 1.17e6 | inactive |
| CG34320 (retired record) | DRSC38798 | 5.66e5 | 5.02e5 | 1.26e6 | 1.29e6 | inactive |
| Mondo | DRSC02668 | 1.99e5 | 1.84e5 | 2.17e6 | 1.85e6 | inactive |
| Mondo | DRSC22006 | 1.78e5 | 1.40e5 | 8.24e5 | 6.61e5 | active |

Results, from the start:
| predicted target | dsRNA | firefly reporter light, replicate 1 | firefly reporter light, replicate 2 | Renilla control light, replicate 1 | Renilla control light, replicate 2 | Outcome |
| --- | --- | --- | --- | --- | --- | --- |
| CG10516 | DRSC09738 | 2.38e5 | 2.07e5 | 1.67e6 | 1.50e6 | inactive |
| CG8093 | DRSC07078 | 87990 | 95700 | 1.17e6 | 1.17e6 | inactive |
| CG34320 (retired record) | DRSC38798 | 5.66e5 | 5.02e5 | 1.26e6 | 1.29e6 | inactive |
| Mondo | DRSC02668 | 1.99e5 | 1.84e5 | 2.17e6 | 1.85e6 | inactive |
| Mondo | DRSC22006 | 1.78e5 | 1.40e5 | 8.24e5 | 6.61e5 | active |
| Mondo | DRSC26287 | 3.30e5 | 3.07e5 | 4.49e5 | 4.04e5 | inactive |
| CG33695 + cana | DRSC01163 | 1.81e5 | 1.71e5 | 3.99e5 | 3.43e5 | inactive |
| CG33695 + cana | DRSC03503 | 1.68e5 | 1.04e5 | 1.12e6 | 1.20e6 | inactive |
| mRpS18A (mitochondrial ribosomal protein S18A) | DRSC14369 | 59665 | 92648 | 1.82e6 | 1.93e6 | inactive |
| Targ2 (Terminal ADP-ribose protein glycohydrolase 2) | DRSC21970 | 7.59e5 | 7.14e5 | 1.52e6 | 1.46e6 | inactive |
| SecS (Sec synthetase) | DRSC12222 | 82765 | 94783 | 2.36e6 | 1.40e6 | inactive |
| Mitofilin | DRSC16742 | 27983 | 46828 | 4.01e5 | 3.19e5 | inactive |
| CG6094 | DRSC02927 | 5.13e5 | 5.60e5 | 1.65e6 | 1.36e6 | inactive |
| CG6094 | DRSC22705 | 9.59e5 | 6.88e5 | 1.67e6 | 1.33e6 | inactive |
| CG6094 | DRSC29084 | 3.44e5 | 3.80e5 | 1.15e6 | 1.21e6 | inactive |
| CCT5 (Chaperonin containing TCP1 subunit 5) | DRSC07357 | 1.17e6 | 5.88e5 | 2.21e6 | 9.99e5 | inactive |
| CCT5 (Chaperonin containing TCP1 subunit 5) | DRSC26229 | 2.18e5 | 1.82e5 | 6.67e5 | 6.71e5 | inactive |
| Nplp2 (Neuropeptide-like precursor 2) | DRSC09824 | 1.64e5 | 2.33e5 | 1.64e6 | 1.39e6 | inactive |
| CG14488 | DRSC06460 | 42621 | 57644 | 8.45e5 | 8.45e5 | inactive |
| GstO2 (Glutathione S transferase O2) | DRSC10691 | 4.30e5 | 4.44e5 | 9.69e5 | 1.26e6 | inactive |
| GstO2 (Glutathione S transferase O2) | DRSC29069 | 6.00e5 | 5.36e5 | 1.35e6 | 1.12e6 | inactive |
| COX6AL (Cytochrome c oxidase subunit 6A-like) | DRSC21454 | 3.85e5 | 6.75e5 | 8.24e5 | 1.32e6 | inactive |
| CG12746 | DRSC12218 | 40811 | 51841 | 1.77e5 | 1.90e5 | inactive |
| CG12746 | DRSC36915 | – | – | – | – | inactive |
| Noc3 (Nucleolar complex protein 3) | DRSC12535 | 77541 | 1.02e5 | 5.18e5 | 4.35e5 | inactive |
| AOX4 (Aldehyde oxidase 4) | DRSC15337 | 97949 | 82888 | 1.22e6 | 1.36e6 | inactive |
| AOX4 (Aldehyde oxidase 4) | DRSC26337 | 2.92e5 | 3.00e5 | 4.75e5 | 7.37e5 | inactive |
| Adk3 (Adenosine kinase 3) | DRSC05917 | 9.16e5 | 3.92e5 | 1.20e6 | 9.73e5 | inactive |
| Adk3 (Adenosine kinase 3) | DRSC28006 | 4.53e5 | 3.74e5 | 1.49e6 | 1.31e6 | inactive |
| Adk3 (Adenosine kinase 3) | DRSC37040 | – | – | – | – | inactive |
| Magi | DRSC04247 | 6.22e5 | 5.55e5 | 1.82e6 | 1.91e6 | inactive |
| Magi | DRSC04451 | 3.03e5 | 1.63e5 | 1.96e6 | 8.68e5 | inactive |
| Magi | DRSC26209 | 3.46e5 | 3.57e5 | 5.88e5 | 6.57e5 | inactive |
| Lim1 (LIM homeobox 1) | DRSC17752 | 95012 | 55068 | 7.51e5 | 6.46e5 | inactive |
| Src42A (Src oncogene at 42A) | DRSC04865 | 9.75e5 | 1.12e6 | 1.61e6 | 2.06e6 | inactive |
| Src42A (Src oncogene at 42A) | DRSC04915 | 2.81e5 | 2.83e5 | 2.18e6 | 2.10e6 | inactive |
| Src42A (Src oncogene at 42A) | DRSC26266 | 3.53e5 | 3.39e5 | 8.40e5 | 6.84e5 | inactive |
| Src42A (Src oncogene at 42A) | DRSC36641 | 5.72e5 | 5.50e5 | 1.41e6 | 1.27e6 | inactive |
| Src42A (Src oncogene at 42A) | DRSC36642 | – | – | – | – | inactive |
| ox (oxen) | DRSC07520 | 3.02e5 | 2.09e5 | 1.92e6 | 1.84e6 | inactive |
